In article PMC4624765, “C-di-GMP Regulates Motile to Sessile Transition by Modulating MshA Pili Biogenesis and Near-Surface Motility Behavior in Vibrio cholerae” (PLoS Pathogens, 2015):

molecular target: T1, CdgJ (Vibrio cholerae) (UniProt Q9KVK6); experiment: two-hybrid; Bacterial Adenylate Cyclase Two-Hybrid System (BACTH), Euromedex; no further conditions told
T1 sequence: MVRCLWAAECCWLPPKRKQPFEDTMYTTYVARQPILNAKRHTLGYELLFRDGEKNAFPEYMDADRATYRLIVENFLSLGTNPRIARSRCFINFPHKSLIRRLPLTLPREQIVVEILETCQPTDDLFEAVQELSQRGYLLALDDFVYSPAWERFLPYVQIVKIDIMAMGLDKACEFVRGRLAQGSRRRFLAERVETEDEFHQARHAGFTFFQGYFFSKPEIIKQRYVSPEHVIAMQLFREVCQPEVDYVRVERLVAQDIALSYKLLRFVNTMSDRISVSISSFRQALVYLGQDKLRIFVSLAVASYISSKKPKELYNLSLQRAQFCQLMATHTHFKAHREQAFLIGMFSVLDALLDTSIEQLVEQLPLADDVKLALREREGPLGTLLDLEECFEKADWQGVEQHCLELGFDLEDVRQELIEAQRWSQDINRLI

Substance | binding
CdgH (Vibrio cholerae) (enzyme) | no binding
MshE (Vibrio cholerae) (enzyme) | no binding
PilT (Vibrio cholerae) (enzyme) | no binding
CdgD (Vibrio cholerae) (enzyme) | no binding
CdgL (Vibrio cholerae) (enzyme) | no binding
CdgK (Vibrio cholerae) (enzyme) | no binding

These are yes or no findings as the source states them, for the method shown.
